Sequences of proteins named here, by UniProt entry; tags and fusion partners are left off. Residues count along the entry.
UniProt Q65P79, 229-314: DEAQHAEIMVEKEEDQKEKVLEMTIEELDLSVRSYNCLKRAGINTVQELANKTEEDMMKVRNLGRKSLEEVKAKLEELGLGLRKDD

According to paper PMC9655642:

Molecular target: alpha-CTD (RNA polymerase alpha subunit C-terminal domain) (Bacillus licheniformis B1391) (UniProt Q65P79)
Test: EMSA
Conditions: 0.1-0.3 g/L protein; EMSA: 10 nM probe, 25 C 20 min; recombinant protein; residues 229-314; protein details: His-tag (pET-28a, stated fused at the 3' end); label: 5'-biotin (reverse primer); probe letters rebuilt from the primers and the genome

Does “CATCTCAATTATACAAAGAAGGAAAGTTTATGTATAGATATTTTCGAATATTTAACTTATTGGACACAATAATTTTGAAATAGGGCATTTTGCACAAGAAATAATCCAAAATAGCCCAAAAATAATCCAACAATTCTAATTATTGTTATAATAATGCTGAGCTCCCAAAATTAATTAAGAGGTGAAGGAAA (double strand) [PLan promoter probe]” bind?
Result: binds

The exact form of at least one protein or probe is not confirmed.
